The source of these data is US20040132160A1.

Results are given in words; binding and its absence hold for the method and conditions named. For some of these results: A result given as binding can be weak or reduced; the word gives no strength. Where a sequence is shown, tags or fusion partners need not be part of it.

Experiment [1] has as its target desmin (intermediate filaments). In words: antibodies to MURFs and to intermediate filaments such as desmin, vimentin and cytokeratin.
The target of experiment [2] is vimentin (intermediate filaments). The experiment is described as above.
The target in experiment [3] is cytokeratin (intermediate filaments). Described as above.
Experiment [4] has as its target actin (filaments of cultured cells). The experiment in a line: coimmunofluorescence in transfected Hela cells.

B1: MURF-1 (Muscle RING Finger 1), native protein without epitope tag (protein)
chain: MNFTVGFKPLLGDAHNMDNLEKQLICPICLEMFSKPVVILPCQHNLCRKCANDVFQASNPLWQSRGSTTVSSGGRFRCPSCRHEVVLDRHGVYGLQRNLLVENIIDIYKQESSRPLHAKAEQHLMCEEHEDEKINIYCLSCEVPTCSLCKVFGAHKDCEVAPLPTIYKRQKSELSDGIAMLVAGNDRVQAVITQMEEVCQTIEDNSRRQKQLLNQRFETLCAVLEERKGELLQALAREQEEKLQRVRGLIRQYGDHLEGSSKLVESAIQSMEEPQMALYLQQAKELINKVGAMSKVELAGRPEPGYESMEQFSVSVEHVAEMLRTIDFQPGAAGDEEDDDMALDGEEGNAGLEEERLDVPEGSGLH
B1: the binding entry in experiment [1], in experiment [2] and in experiment [3] was “binds” throughout.

B2: full-length MURF-1 with C-terminal myc tag (protein, not shown: small tags and cut ends)
chain: B1 chain
With B2, in experiment [4], the binding result is “no binding”.
